Laboratory results as given in publication PMC5513536.

Amino acid sequences for entries named in this document (tags omitted).
UniProt F5HID2: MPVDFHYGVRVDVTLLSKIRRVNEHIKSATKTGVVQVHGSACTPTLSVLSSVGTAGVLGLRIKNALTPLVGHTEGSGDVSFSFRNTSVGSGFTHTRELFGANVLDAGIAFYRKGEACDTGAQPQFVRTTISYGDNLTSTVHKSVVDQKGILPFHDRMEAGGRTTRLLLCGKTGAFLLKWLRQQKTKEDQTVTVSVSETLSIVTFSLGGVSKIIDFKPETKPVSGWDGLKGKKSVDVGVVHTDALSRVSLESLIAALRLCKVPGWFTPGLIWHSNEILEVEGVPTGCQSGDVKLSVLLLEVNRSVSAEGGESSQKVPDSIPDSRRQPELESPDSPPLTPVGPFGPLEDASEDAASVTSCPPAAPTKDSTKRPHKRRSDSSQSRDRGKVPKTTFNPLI

B1: Uveal autoantigen with coiled-coil domains and ankyrin repeats (protein, UniProt Q9BZF9 1-1416)
chain: MKSLKSRLRRQDVPGPASSGAAAASAHAADWNKYDDRLMKAAERGDVEKVTSILAKKGVNPGKLDVEGRSVFHVVTSKGNLECLNAILIHGVDITTSDTAGRNALHLAAKYGHALCLQKLLQYNCPTEHADLQGRTALHDAAMADCPSSIQLLCDHGASVNAKDVDGRTPLVLATQMSRPTICQLLIDRGADVNSRDKQNRTALMLGCEYGCRDAVEVLIKNGADISLLDALGHDSSYYARIGDNLDILTLLKTASENTNKGRELWKKGPSLQQRNLTHMQDEVNVKSHQREHQNIQDLEIENEDLKERLRKIQQEQRILLDKVNGLQLQLNEEVMVADDLESEREKLKSLLAAKEKQHEESLRTIEALKNRFKYFESDHLGSGSHFSNRKEDMLLKQGQMYMADSQCTSPGIPAHMQSRSMLRPLELSLPSQTSYSENEILKKELEAMRTFCESAKQDRLKLQNELAHKVAECKALALECERVKEDSDEQIKQLEDALKDVQKRMYESEGKVKQMQTHFLALKEHLTSEAASGNHRLTEELKDQLKDLKVKYEGASAEVGKLRNQIKQNEMIVEEFKRDEGKLIEENKRLQKELSMCEMEREKKGRKVTEMEGQAKELSAKLALSIPAEKFENMKSSLSNEVNEKAKKLVEMEREHEKSLSEIRQLKRELENVKAKLAQHVKPEEHEQVKSRLEQKSGELGKKITELTLKNQTLQKEIEKVYLDNKLLKEQAHNLTIEMKNHYVPLKVSEDMKKSHDAIIDDLNRKLLDVTQKYTEKKLEMEKLLLENDSLSKDVSRLETVFVPPEKHEKEIIALKSNIVELKKQLSELKKKCGEDQEKIHALTSENTNLKKMMSNQYVPVKTHEEVKMTLNDTLAKTNRELLDVKKKFEDINQEFVKIKDKNEILKRNLENTQNQIKAEYISLAEHEAKMSSLSQSMRKVQDSNAEILANYRKGQEEIVTLHAEIKAQKKELDTIQECIKVKYAPIVSFEECERKFKATEKELKDQLSEQTQKYSVSEEEVKKNKQENDKLKKEIFTLQKDLRDKTVLIEKSHEMERALSRKTDELNKQLKDLSQKYTEVKNVKEKLVEENAKQTSEILAVQNLLQKQHVPLEQVEALKKSLNGTIENLKEELKSMQRCYEKEQQTVTKLHQLLENQKNSSVPLAEHLQIKEAFEKEVGIIKASLREKEEESQNKMEEVSKLQSEVQNTKQALKKLETREVVDLSKYKATKSDLETQISSLNEKLANLNRKYEEVCEEVLHAKKKEISAKDEKELLHFSIEQEIKDQKERCDKSLTTITELQRRIQESAKQIEAKDNKITELLNDVERLKQALNGLSQLTYTSGNPTKRQSQLIDTLQHQVKSLEQQLADADRQHQEVIAIYRTHLLSAAQGHMDEDVQEALLQIIQMRQGLVC
B2: Isoform 4 of Heat shock protein 105kDA (protein, UniProt Q92598-4 1-860)
chain: MATAAVLRGPAAHWVESFQKAREEGSGSGTWRGRWRRRSVISFGSKNRTIGVAAKNQQITHANNTVSNFKRFHGRAFNDPFIQKEKENLSYDLVPLKNGGVGIKVMYMGEEHLFSVEQITAMLLTKLKETAENSLKKPVTDCVISVPSFFTDAERRSVLDAAQIVGLNCLRLMNDMTAVALNYGIYKQDLPSLDEKPRIVVFVDMGHSAFQVSACAFNKGKLKVLGTAFDPFLGGKNFDEKLVEHFCAEFKTKYKLDAKSKIRALLRLYQECEKLKKLMSSNSTDLPLNIECFMNDKDVSGKMNRSQFEELCAELLQKIEVPLYSLLEQTHLKVEDVSAVEIVGGATRIPAVKERIAKFFGKDISTTLNADEAVARGCALQCAILSPAFKVREFSVTDAVPFPISLIWNHDSEDTEGVHEVFSRNHAAPFSKVLTFLRRGPFELEAFYSDPQGVPYPEAKIGRFVVQNVSAQKDGEKSRVKVKVRVNTHGIFTISTASMVEKVPTEENEMSSEADMECLNQRPPENPDTDKNVQQDNSEAGTQPQVQTDAQQTSQSPPSPELTSEENKIPDADKANEKKVDQPPEAKKPKIKVVNVELPIEANLVWQLGKDLLNMYIETEGKMIMQDKLEKERNDAKNAVEEYVYEFRDKLCGPYEKFICEQDHQNFLRLLTETEDWLYEEGEDQAKQAYVDKLEELMKIGTPVKVRFQEAEERPKMFEELGQRLQHYAKIAADFRNKDEKYNHIDESEMKKVEKSVNEVMEWMNNVMNAQAKKSLDQDPVVRAQEIKTKIKELNNTCEPVVTQPKPKIESPKLERTPNGPNIDKKEEDLEDKNNFGAEPPHQNGECYPNEKNSVNMDLD
B3: 14-3-3 protein theta (protein, UniProt P27348 1-245)
chain: MEKTELIQKAKLAEQAERYDDMATCMKAVTEQGAELSNEERNLLSVAYKNVVGGRRSAWRVISSIEQKTDTSDKKLQLIKDYREKVESELRSICTTVLELLDKYLIANATNPESKVFYLKMKGDYFRYLAEVACGDDRKQTIDNSQGAYQEAFDISKKEMQPTHPIRLGLALNFSVFYYEILNNPELACTLAKTAFDEAIAELDTLNEDSYKDSTLIMQLLRDNLTLWTSDSAGEECDAAEGAEN
B4: pre-rRNA processing protein FTSJ3 (protein, UniProt Q8IY81 1-847)
chain: MGKKGKVGKSRRDKFYHLAKETGYRSRSAFKLIQLNRRFQFLQKARALLDLCAAPGGWLQVAAKFMPVSSLIVGVDLVPIKPLPNVVTLQQDITTERCRQALRKELKTWKVDVVLNDGAPNVGASWVHDAYSQAHLTLMALRLACDFLARGGSFITKVFRSRDYQPLLWIFQQLFRRVQATKPQASRHESAEIFVVCQGFLAPDKVDSKFFDPKFAFKEVEVQAKTVTELVTKKKPKAEGYAEGDLTLYHRTSVTDFLRAANPVDFLSKASEIMVDDEELAQHPATTEDIRVCCQDIRVLGRKELRSLLNWRTKLRRYVAKKLKEQAKALDISLSSGEEDEGDEEDSTAGTTKQPSKEEEEEEEEEQLNQTLAEMKAQEVAELKRKKKKLLREQRKQRERVELKMDLPGVSIADEGETGMFSLSTIRGHQLLEEVTQGDMSAADTFLSDLPRDDIYVSDVEDDGDDTSLDSDLDPEELAGVRGHQGLRDQKRMRLTEVQDDKEEEEEENPLLVPLEEKAVLQEEQANLWFSKGSFAGIEDDADEALEISQAQLLFENRRKGRQQQQKQQLPQTPPSCLKTEIMSPLYQDEAPKGTEASSGTEAATGLEGEEKDGISDSDSSTSSEEEESWEPLRGKKRSRGPKSDDDGFEIVPIEDPAKHRILDPEGLALGAVIASSKKAKRDLIDNSFNRYTFNEDEGELPEWFVQEEKQHRIRQLPVGKKEVEHYRKRWREINARPIKKVAEAKARKKRRMLKRLEQTRKKAEAVVNTVDISEREKVAQLRSLYKKAGLGKEKRHVTYVVAKKGVGRKVRRPAGVRGHFKVVDSRMKKDQRAQQRKEQKKKHKRK
B5: EF-hand domain-containing protein D2 (protein, UniProt Q96C19 1-240)
chain: MATDELATKLSRRLQMEGEGGGETPEQPGLNGAAAAAAGAPDEAAEALGSADCELSAKLLRRADLNQGIGEPQSPSRRVFNPYTEFKEFSRKQIKDMEKMFKQYDAGRDGFIDLMELKLMMEKLGAPQTHLGLKNMIKEVDEDFDSKLSFREFLLIFRKAAAGELQEDSGLCVLARLSEIDVSSEGVKGAKSFFEAKVQAINVSSRFEEEIKAEQEERKKQAEEMKQRKAAFKELQSTFK
B6: Transformer-2 protein homolog (protein, UniProt P62995 1-288)
chain: MSDSGEQNYGERESRSASRSGSAHGSGKSARHTPARSRSKEDSRRSRSKSRSRSESRSRSRRSSRRHYTRSRSRSRSHRRSRSRSYSRDYRRRHSHSHSPMSTRRRHVGNRANPDPNCCLGVFGLSLYTTERDLREVFSKYGPIADVSIVYDQQSRRSRGFAFVYFENVDDAKEAKERANGMELDGRRIRVDFSITKRPHTPTPGIYMGRPTYGSSRRRDYYDRGYDRGYDDRDYYSRSYRGGGGGGGGWRAAQDRDQIYRRRSPSPYYSRGGYRSRSRSRSYSPRRY
B7: Isoform 3 of General transcription factor II-I (protein, UniProt P78347-3 1-978)
chain: MAQVAMSTLPVEDEESSESRMVVTFLMSALESMCKELAKSKAEVACIAVYETDVFVVGTERGRAFVNTRKDFQKDFVKYCVEEEEKAAEMHKMKSTTQANRMSVDAVEIETLRKTVEDYFCFCYGKALGKSTVVPVPYEKMLRDQSAVVVQGLPEGVAFKHPENYDLATLKWILENKAGISFIIKRPFLEPKKHVGGRVMVTDADRSILSPGGSCGPIKVKTEPTEDSGISLEMAAVTVKEESEDPDYYQYNIQGSHHSSEGNEGTEMEVPAEDSTQHVPSETSEDPEVEVTIEDDDYSPPSKRPKANELPQPPVPEPANAGKRKVREFNFEKWNARITDLRKQVEELFERKYAQAIKAKGPVTIPYPLFQSHVEDLYVEGLPEGIPFRRPSTYGIPRLERILLAKERIRFVIKKHELLNSTREDLQLDKPASGVKEEWYARITKLRKMVDQLFCKKFAEALGSTEAKAVPYQKFEAHPNDLYVEGLPENIPFRSPSWYGIPRLEKIIQVGNRIKFVIKRPELLTHSTTEVTQPRTNTPVKEDWNVRITKLRKQVEEIFNLKFAQALGLTEAVKVPYPVFESNPEFLYVEGLPEGIPFRSPTWFGIPRLERIVRGSNKIKFVVKKPELVISYLPPGMASKINTKALQSPKRPRSPGSNSKVPEIEVTVEGPNNNNPQTSAVRTPTQTNGSNVPFKPRGREFSFEAWNAKITDLKQKVENLFNEKCGEALGLKQAVKVPFALFESFPEDFYVEGLPEGVPFRRPSTFGIPRLEKILRNKAKIKFIIKKPEMFETAIKESTSSKSPPRKINSSPNVNTTASGVEDLNIIQVTIPDDDNERLSKVEKARQLREQVNDLFSRKFGEAIGMGFPVKVPYRKITINPGCVVVDGMPPGVSFKAPSYLEISSMRRILDSAEFIKFTVIRPFPGLVINNQLVDQSESEGPVIQESAEPSQLEVPATEEIKETDGSSQIKQEPDPTW
B8: Isoform 5 of Double-stranded RNA-specific adensodine deaminase (protein, UniProt P55265-5 1-931)
chain: MAEIKEKICDYLFNVSDSSALNLAKNIGLTKARDINAVLIDMERQGDVYRQGTTPPIWHLTDKKRERMQIKRNTNSVPETAPAAIPETKRNAEFLTCNIPTSNASNNMVTTEKVENGQEPVIKLENRQEARPEPARLKPPVHYNGPSKAGYVDFENGQWATDDIPDDLNSIRAAPGEFRAIMEMPSFYSHGLPRCSPYKKLTECQLKNPISGLLEYAQFASQTCEFNMIEQSGPPHEPRFKFQVVINGREFPPAEAGSKKVAKQDAAMKAMTILLEEAKAKDSGKSEESSHYSTEKESEKTAESQTPTPSATSFFSGKSPVTTLLECMHKLGNSCEFRLLSKEGPAHEPKFQYCVAVGAQTFPSVSAPSKKVAKQMAAEEAMKALHGEATNSMASDNQPEGMISESLDNLESMMPNKVRKIGELVRYLNTNPVGGLLEYARSHGFAAEFKLVDQSGPPHEPKFVYQAKVGGRWFPAVCAHSKKQGKQEAADAALRVLIGENEKAERMGFTEVTPVTGASLRRTMLLLSRSPEAQPKTLPLTGSTFHDQIAMLSHRCFNTLTNSFQPSLLGRKILAAIIMKKDSEDMGVVVSLGTGNRCVKGDSLSLKGETVNDCHAEIISRRGFIRFLYSELMKYNSQTAKDSIFEPAKGGEKLQIKKTVSFHLYISTAPCGDGALFDKSCSDRAMESTESRHYPVFENPKQGKLRTKVENGEGTIPVESSDIVPTWDGIRLGERLRTMSCSDKILRWNVLGLQGALLTHFLQPIYLKSVTLGYLFSQGHLTRAICCRVTRDGSAFEDGLRHPFIVNHPKVGRVSIYDSKRQSGKTKETSVNWCLADGYDLEILDGTRGTVDGPRNELSRVSKKNIFLLFKKLCSFRYRRDLLRLSYGEAKKAARDYETAKNYFKKGLKDMGYGNWISKPQEEKNFYLCPV

target: Flag-epitope tagged ORF59 (BAC16-ORF59Flag) (KSHV (human herpesvirus 8)) (UniProt F5HID2); assay: affinity purification with mass spectrometry

For B1, which binding is on record?
Its binding is “binds”.

How did the binding turn out when B2 was run?
Its binding is “binds”.

How did the binding turn out when B3 was run?
The binding was “binds”.

B4 was tested. Which binding did it give?
Its binding is “binds”.

With B5 as the binder, how does the binding read?
The binding was “binds”.

How did the binding turn out when B6 was run?
Its binding is “binds”.

Which binding does the source give for B7 here?
The binding was “binds”.

Which binding does the source give for B8 here?
The binding was “binds”.

No constants are given. Whether binding was seen depends on the method and setting. Binding seen in cells or lysates may run through a third protein. These calls come from enrichment with a bait or labelling near it, and not all partners need be listed.
